Reference: PubChem BioAssay AID686938 (Drosophila RNAi Screening Center, 2013)
Assay: 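Looking for CRAC channel components and the factors controlling them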 (primary screen). Cells: Drosophila S2R+ cells. Reagents: long dsRNA against Drosophila genes, about 0.25 µg dsRNA per well, roughly 10,000 cells. Duration: 5 days of knock-down before the calcium assay. Conditions: thapsigargin (SERCA pump blocker) to empty calcium stores; entry signal taken 4 min after adding it. Detection: 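Per-well fluo-4 fluorescence in two replicates, unnormalised, measured in resting cells and 4 min after store depletion by the SERCA blocker thapsigargin; ratio of the two present in few wells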. Reading the numbers: calcium entry signal: higher = stronger calcium signal after store depletion; resting calcium signal: higher = higher resting calcium signal. Active means: 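Hit if the duplicate-averaged plate z-score for entry over resting signal is under −3; wells with weak total dye signal (Fmax z < −2) or more than 5 off-targets removed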. Calls: active = strongly reduced calcium entry; inactive = no strong reduction.
The deposit covers about 23,000 reagents; this is an unselected part of those that have a named target and a result. In the full data, 75 (0.33%) got an active call. 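Raw plate signals without normalisation; calls rest on plate z-scores that were not deposited; ratio present for only 364 wells.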 A number with no mark means an inactive call. Names joined by + are all predicted targets of the reagent. Reagent sequences are not shown. Not stated in the record: the dose of the treatment.

predicted target	dsRNA	calcium entry signal, replicate 1 (fluorescence units)	calcium entry signal, replicate 2 (fluorescence units)	resting calcium signal, replicate 1 (fluorescence units)	resting calcium signal, replicate 2 (fluorescence units)
Tsp	DRSC02144	4.03e7		1.78e7	
Tsp	DRSC02145	2.97e7	2.94e7	1.48e7	1.45e7
Idh3a	DRSC19446	3.32e7	4.56e7	1.83e7	2.01e7
CG42700	DRSC06292	1.38e7	3.04e7	1.22e7	1.44e7
CG42700	DRSC06293	1.46e7	4.13e7	1.31e7	1.84e7
CG42700	DRSC23109	3.98e7	3.79e7	1.73e7	1.70e7
LysX	DRSC08678	3.18e7	3.13e7	1.42e7	1.49e7
roh	DRSC04003	2.55e7	3.74e7	1.33e7	1.63e7
CG32061	DRSC22605	3.80e7	3.96e7	2.31e7	1.87e7
CG13226	DRSC06346	2.87e7	2.40e7	1.46e7	1.12e7
CG4281	DRSC18521	3.26e7	3.30e7	1.48e7	1.52e7
RanBP3	DRSC14217	3.66e7	3.97e7	1.86e7	1.82e7
RanBP3	DRSC23153	2.82e7	3.23e7	1.61e7	1.48e7
CG34300	DRSC13977	3.91e7	3.37e7	1.76e7	1.72e7
betaNACtes1	DRSC19534	3.24e7	2.89e7	1.66e7	1.34e7
CG3437	DRSC10366	2.69e7	3.64e7	1.35e7	1.58e7
CG15279	DRSC01935	4.43e7		2.02e7	
CG14309	DRSC14788	3.58e7	4.41e7	6.66e7	2.09e7
tor	DRSC07707	3.72e7	5.12e7	1.75e7	2.12e7
CG9577	DRSC20693	4.47e7	3.30e7	2.34e7	1.63e7
CG14931	DRSC02413	4.20e7	5.45e7	2.16e7	2.37e7
Pat1	DRSC17750	3.61e7	3.73e7	1.67e7	1.65e7
CG13407	DRSC14583	4.61e7	4.69e7	6.21e7	2.13e7
CG6836	DRSC10722	3.63e7	4.19e7	1.49e7	2.98e7
CG31223	DRSC15115	3.34e7	3.25e7	1.55e7	1.41e7
Parp16	DRSC06597	4.81e7	5.92e7	2.25e7	2.65e7
CG31274 + MESK4	DRSC13202	4.01e7	3.85e7	2.39e7	1.88e7
TwdlD	DRSC14738	2.84e7	3.90e7	1.41e7	1.75e7
sn	DRSC18834	2.81e7	4.56e7	1.35e7	2.17e7

Continued (2 carried over from the part before).
predicted target	dsRNA	calcium entry signal, replicate 1 (fluorescence units)	calcium entry signal, replicate 2 (fluorescence units)	resting calcium signal, replicate 1 (fluorescence units)	resting calcium signal, replicate 2 (fluorescence units)
TwdlD	DRSC14738	2.84e7	3.90e7	1.41e7	1.75e7
sn	DRSC18834	2.81e7	4.56e7	1.35e7	2.17e7
Osi13	DRSC12281	3.86e7	2.15e7	1.72e7	1.05e7
CG7881	DRSC04898	4.29e7	4.64e7	2.16e7	2.25e7
CheB98a	DRSC14882	3.80e7	5.59e7	1.96e7	2.30e7
CG14314	DRSC14793	3.54e7	3.98e7	5.36e7	1.85e7
CG33460	DRSC05570	5.99e7	4.56e7	2.64e7	1.82e7
Swip-1	DRSC02083	5.83e7		2.82e7	
Swip-1	DRSC02084	3.95e7	5.91e7	2.16e7	2.65e7
FER	DRSC12735	3.42e7	4.63e7	1.68e7	2.21e7
FER	DRSC16673	2.59e7	2.50e7	1.40e7	1.41e7
CG13810	DRSC08344	2.55e7	3.58e7	1.28e7	1.51e7
CG13810	DRSC22838	2.83e7	3.86e7	1.45e7	1.73e7
CG31698	DRSC22226	3.73e7	4.77e7	1.82e7	2.72e7
toc	DRSC00169	4.43e7	4.47e7	2.38e7	2.10e7
toc	DRSC00171	4.19e7	4.25e7	2.35e7	1.85e7
toc	DRSC00842	4.20e7		2.59e7	
Polr3E	DRSC11880	2.08e7	2.79e7	1.16e7	1.37e7
CG31875	DRSC21975	1.92e7	5.46e7	9.59e6	2.55e7
FoxP	DRSC15159	3.70e7	3.39e7	1.80e7	1.87e7
FoxP	DRSC21961	3.59e7	4.08e7	1.78e7	2.24e7
Idh3b	DRSC16040	5.13e7	3.09e7	2.36e7	1.44e7
CG42353 + CG42354	DRSC23154	3.31e7	2.92e7	1.73e7	1.45e7
CG4467	DRSC15585	3.76e7	5.04e7	2.08e7	2.09e7
CG9294	DRSC04537	4.49e7	5.42e7	2.16e7	2.37e7
Marc	DRSC06614	3.56e7	4.00e7	1.77e7	1.67e7
Mi-2	DRSC11222	2.69e7	3.20e7	1.30e7	1.47e7
ppk23	DRSC20110	2.12e7	2.78e7	1.26e7	1.41e7
PolH	DRSC11800	3.76e7	5.15e7	1.91e7	3.38e7
CG33339	DRSC22917	4.26e7	3.25e7	2.20e7	1.61e7
CG6163	DRSC10595	2.65e7	4.82e7	1.31e7	1.99e7
